Results published in US5064853A, “4(2-indolyl)2-amino-pentanedioic acids and cholecyostokinin use thereof” (Roussel Uclaf, priority 1989, dated 1991).
At least one compound was matched to its structure with a doubt left.

Tested on: Guinea Pig's Isolated Ileum
Assay: Action on guinea pig's isolated ileum (antagonism of CCK8 contractions)
Conditions: product at 10^-6 M, CCK8 1×10^-8 M, one minute contact

COc1ccccc1C(NC(=O)[C@H](CCC(=O)O)NC(=O)c1cc2ccccc2[nH]1)c1ccccc1 (stereo partly drawn) [Example 9, (4S)-4-[[(1H-indol-2-yl)-carbonyl]-amino]-5-[[(2-methoxyphenyl)-benzyl]-amino]-5-oxo pentanoic acid]
antagonism of contractions brought about by CCK8: significant antagonistic activity
